# Test results as given in paper PMC3467264.
# Amino acid sequences for entries named in this document (tags omitted).
# UniProt Q7TQN4, whole entry: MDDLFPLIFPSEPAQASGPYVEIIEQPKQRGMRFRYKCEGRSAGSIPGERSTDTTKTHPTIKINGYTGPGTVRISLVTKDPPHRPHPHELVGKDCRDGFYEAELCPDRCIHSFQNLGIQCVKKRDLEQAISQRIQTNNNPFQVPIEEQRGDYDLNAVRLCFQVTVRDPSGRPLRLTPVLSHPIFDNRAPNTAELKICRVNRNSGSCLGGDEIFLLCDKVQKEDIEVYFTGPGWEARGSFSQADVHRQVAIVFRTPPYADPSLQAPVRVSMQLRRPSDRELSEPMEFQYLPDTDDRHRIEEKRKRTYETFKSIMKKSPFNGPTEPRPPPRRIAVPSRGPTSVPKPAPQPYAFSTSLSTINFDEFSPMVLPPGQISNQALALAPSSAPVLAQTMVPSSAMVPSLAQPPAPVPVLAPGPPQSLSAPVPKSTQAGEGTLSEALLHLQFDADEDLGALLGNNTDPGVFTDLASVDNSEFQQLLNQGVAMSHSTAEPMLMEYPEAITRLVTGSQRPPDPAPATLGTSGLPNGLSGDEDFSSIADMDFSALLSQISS
# Construct, isoform or probe ends are uncertain for at least one entry. At least one result comes from cells or an extract, where the contact may be indirect. For some assays here: At least one verdict rests on a figure or table, not on a statement of the authors.
# What was measured:
# [1] = target: NF-kB p65 (RelA) (rat (832/13 INS-1-derived insulinoma cells)) (UniProt Q7TQN4); assay: EMSA with antiserum (complex impaired); settings: nuclear extract, IL-1beta-stimulated, diminished by 50x unlabeled oligo and by IkBa super-repressor; LightShift Chemiluminescent EMSA kit, 10 ug nuclear protein, 6% DNA retardation gel; pH and temperature not stated; protein in an extract; label: 5'-biotin
# [2] = test system: NF-kB p65 (RelA) + p300 coactivator; assay: EMSA with antiserum (complex impaired); settings: nuclear extract, IL-1beta-stimulated, p300 antiserum impairs the complex, p300 probably bound through NF-kB; LightShift Chemiluminescent EMSA kit, 10 ug nuclear protein, 6% DNA retardation gel; pH and temperature not stated; protein in an extract; label: 5'-biotin
sequence,measurement,setting,value
GGTCTGGGAACTTCCAATACTGCCTCAGAATGGGAATTTCCACACT (double strand) [rat CCL2 promoter NF-kB probe],binding result,[1],binds
same,binding result,[2],binds
